# Source: the supplement of paper PMC8728848
# The other results are listed elsewhere or left out.
# Key:
# Test in all cases: glycan array binding signal (z-score within array); higher = stronger binding
# Conditions in all cases: glycan notation: IUPAC condensed, linker removed
# [1] = target: Neu5Ac(a2-3)Gal(b1-3)GlcNAc(b1-2)Man(a1-3)[GlcNAc(b1-4)][Neu5Ac(a2-3)Gal(b1-3)GlcNAc(b1-2)Man(a1-6)]Man(b1-4)GlcNAc(b1-4)GlcNAc
# How it was run: (§1)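 Arrays were curated from the Consortium for Functional Glycomics database, 3228 in total, and kept only where the protein sequence was available. Binding is expressed as a within-array Z-score. This score was averaged across arrays of the same protein sequence at different concentrations or buffers and across linkers, and negative values can be read as non-binding.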
# [2] = target: Neu5Ac(a2-3)Gal(b1-3)GlcNAc(b1-2)Man(a1-3)[Neu5Ac(a2-3)Gal(b1-3)GlcNAc(b1-2)Man(a1-6)]Man(b1-4)GlcNAc(b1-4)GlcNAc
# How it was run: as §1
# [3] = target: Neu5Ac(a2-3)Gal(b1-3)GlcNAc(b1-3)Gal(b1-3)GlcNAc
# How it was run: as §1
# [4] = target: Neu5Ac(a2-3)Gal(b1-3)GlcNAc(b1-3)Gal(b1-4)GlcNAc
# How it was run: as §1
# [5] = target: Neu5Ac(a2-3)Gal(b1-3)GlcNAc(b1-3)GalNAc
# How it was run: as §1
# [6] = target: Neu5Ac(a2-3)Gal(b1-3)GlcNAc(b1-4)Gal(b1-4)Glc
# How it was run: as §1
# [7] = target: Neu5Ac(a2-3)Gal(b1-3)GlcNAc(b1-6)GalNAc
# How it was run: as §1
# [8] = target: Neu5Ac(a2-3)Gal(b1-3)GlcNAc6S
# How it was run: as §1
# [9] = target: Neu5Ac(a2-3)Gal(b1-3)[Fuc(a1-4)]GlcNAc
# How it was run: as §1
# [10] = target: Neu5Ac(a2-3)Gal(b1-3)[Fuc(a1-4)]GlcNAc(b1-3)Gal(b1-3)[Fuc(a1-4)]GlcNAc
# How it was run: as §1
# [11] = target: Neu5Ac(a2-3)Gal(b1-3)[Fuc(a1-4)]GlcNAc(b1-3)Gal(b1-4)[Fuc(a1-3)]GlcNAc
# How it was run: as §1
# [12] = target: Neu5Ac(a2-3)Gal(b1-3)[GlcNAc(b1-6)]GalNAc
# How it was run: as §1
# [13] = target: Neu5Ac(a2-3)Gal(b1-3)[Neu5Ac(a2-6)]GalNAc
# How it was run: as §1
# [14] = target: Neu5Ac(a2-3)Gal(b1-3)[Neu5Ac(a2-6)]GlcNAc(b1-3)[Fuc(a1-3)[Gal(b1-4)]GlcNAc(b1-6)]Gal(b1-4)Glc
# How it was run: as §1
# [15] = target: Neu5Ac(a2-3)Gal(b1-3)]Neu5Ac(a2-3)Gal(b1-4)]GlcNAc
# How it was run: as §1
# [16] = target: Neu5Ac(a2-3)Gal(b1-4)Glc
# How it was run: as §1
# [17] = target: Neu5Ac(a2-3)Gal(b1-4)GlcNAc
# How it was run: as §1
# [18] = target: Neu5Ac(a2-3)Gal(b1-4)GlcNAc(b1-2)Man
# How it was run: as §1
# [19] = target: Neu5Ac(a2-3)Gal(b1-4)GlcNAc(b1-2)Man(a1-3)[GlcNAc(b1-4)][Neu5Ac(a2-3)Gal(b1-4)GlcNAc(b1-2)Man(a1-6)]Man(b1-4)GlcNAc(b1-4)GlcNAc
# How it was run: as §1
# [20] = target: Neu5Ac(a2-3)Gal(b1-4)GlcNAc(b1-2)Man(a1-3)[Neu5Ac(a2-3)Gal(b1-4)GlcNAc(b1-2)Man(a1-6)]Man(b1-4)GlcNAc(b1-4)GlcNAc
# How it was run: as §1
# [21] = target: Neu5Ac(a2-3)Gal(b1-4)GlcNAc(b1-2)Man(a1-3)[Neu5Ac(a2-3)Gal(b1-4)GlcNAc(b1-2)Man(a1-6)]Man(b1-4)GlcNAc(b1-4)[Fuc(a1-6)]GlcNAc
# How it was run: as §1
# [22] = target: Neu5Ac(a2-3)Gal(b1-4)GlcNAc(b1-2)Man(a1-3)[Neu5Ac(a2-6)Gal(b1-4)GlcNAc(b1-2)Man(a1-6)]Man(b1-4)GlcNAc(b1-4)GlcNAc
# How it was run: as §1
# [23] = target: Neu5Ac(a2-3)Gal(b1-4)GlcNAc(b1-2)[Neu5Ac(a2-3)Gal(b1-4)GlcNAc(b1-4)]Man(a1-3)[GlcNAc(b1-4)][Neu5Ac(a2-3)Gal(b1-4)GlcNAc(b1-2)[Neu5Ac(a2-3)Gal(b1-4)GlcNAc(b1-6)]Man(a1-6)]Man(b1-4)GlcNAc(b1-4)GlcNAc
# How it was run: as §1
# [24] = target: Neu5Ac(a2-3)Gal(b1-4)GlcNAc(b1-2)[Neu5Ac(a2-3)Gal(b1-4)GlcNAc(b1-4)]Man(a1-3)[GlcNAc(b1-4)][Neu5Ac(a2-3)Gal(b1-4)GlcNAc(b1-4)Man(a1-6)]Man(b1-4)GlcNAc(b1-4)GlcNAc
# How it was run: as §1
# [25] = target: Neu5Ac(a2-3)Gal(b1-4)GlcNAc(b1-2)[Neu5Ac(a2-3)Gal(b1-4)GlcNAc(b1-6)]Man(a1-6)[Neu5Ac(a2-3)Gal(b1-4)GlcNAc(b1-2)Man(a1-3)]Man(b1-4)GlcNAc(b1-4)GlcNAc
# How it was run: as §1
# [26] = target: Neu5Ac(a2-3)Gal(b1-4)GlcNAc(b1-2)[Neu5Ac(a2-3)Gal(b1-4)GlcNAc(b1-6)]Man(a1-6)[Neu5Ac(a2-3)Gal(b1-4)GlcNAc(b1-2)Man(a1-3)][GlcNAc(b1-4)]Man(b1-4)GlcNAc(b1-4)GlcNAc
# How it was run: as §1
# [27] = target: Neu5Ac(a2-3)Gal(b1-4)GlcNAc(b1-3)Gal
# How it was run: as §1
# [28] = target: Neu5Ac(a2-3)Gal(b1-4)GlcNAc(b1-3)Gal(b1-3)GlcNAc
# How it was run: as §1
# [29] = target: Neu5Ac(a2-3)Gal(b1-4)GlcNAc(b1-3)Gal(b1-4)GlcNAc
# How it was run: as §1
# [30] = target: Neu5Ac(a2-3)Gal(b1-4)GlcNAc(b1-3)Gal(b1-4)GlcNAc(b1-2)Man(a1-3)[Neu5Ac(a2-3)Gal(b1-4)GlcNAc(b1-3)Gal(b1-4)GlcNAc(b1-2)Man(a1-6)]Man(b1-4)GlcNAc(b1-4)GlcNAc
# How it was run: as §1
# [31] = target: Neu5Ac(a2-3)Gal(b1-4)GlcNAc(b1-3)Gal(b1-4)GlcNAc(b1-3)Gal(b1-4)GlcNAc
# How it was run: as §1
# [32] = target: Neu5Ac(a2-3)Gal(b1-4)GlcNAc(b1-3)Gal(b1-4)GlcNAc(b1-3)Gal(b1-4)GlcNAc(b1-2)Man(a1-3)[Neu5Ac(a2-3)Gal(b1-4)GlcNAc(b1-3)Gal(b1-4)GlcNAc(b1-3)Gal(b1-4)GlcNAc(b1-2)Man(a1-6)]GalNAc
# How it was run: as §1
# [33] = target: Neu5Ac(a2-3)Gal(b1-4)GlcNAc(b1-3)Gal(b1-4)GlcNAc(b1-3)GalNAc
# How it was run: as §1
# [34] = target: Neu5Ac(a2-3)Gal(b1-4)GlcNAc(b1-3)Gal(b1-4)GlcNAc(b1-3)[Neu5Ac(a2-3)Gal(b1-4)GlcNAc(b1-3)Gal(b1-4)GlcNAc(b1-6)]GalNAc
# How it was run: as §1
# [35] = target: Neu5Ac(a2-3)Gal(b1-4)GlcNAc(b1-3)Gal(b1-4)GlcNAc(b1-6)[Gal(b1-3)]GalNAc
# How it was run: as §1
# [36] = target: Neu5Ac(a2-3)Gal(b1-4)GlcNAc(b1-3)Gal(b1-4)[Fuc(a1-3)]GlcNAc
# How it was run: as §1
# [37] = target: Neu5Ac(a2-3)Gal(b1-4)GlcNAc(b1-3)GalNAc
# How it was run: as §1
# [38] = target: Neu5Ac(a2-3)Gal(b1-4)GlcNAc(b1-3)[Neu5Ac(a2-3)Gal(b1-4)GlcNAc(b1-6)]GalNAc
# How it was run: as §1
binder,measurement,setting,value
RobpsCRA (Robinia pseudoacacia) (protein) IKGGYWYSGSGLAVSDINPSHFTHLFCAFADLDPNTNKLTISSSNAAAFSTFTQTVRAKNPSVKTLLSIGGGGGRALAAVFANMASQASRRKSFIDSSIQLARRNNFHGLDLDWEYPSSDIDKTNFASLIREWRAAVATESSTSGTPALLLSAAVGGSDQITPLKYYPGEAIANNLDWVNVMTYDLYTSDSYPTLTQPPAPLFYPRGIFSADEGITKWIQSGVPESKLALGLPFYGFKWRLSDPNNHGLFAPATQGLGAVKYKDIVNTGGQVEFDSTYVTNYCFKGTDWYGYDDTQSISAKVAYAKQRGLFGYFAWHIEQDSNWALS,glycan array binding signal (z-score),[1],-0.189
same,glycan array binding signal (z-score),[2],-0.877
same,glycan array binding signal (z-score),[3],0.075
same,glycan array binding signal (z-score),[4],-0.578
same,glycan array binding signal (z-score),[5],-0.216
same,glycan array binding signal (z-score),[6],-0.249
same,glycan array binding signal (z-score),[7],0.248
same,glycan array binding signal (z-score),[8],0.702
same,glycan array binding signal (z-score),[9],-0.434
same,glycan array binding signal (z-score),[10],-0.559
same,glycan array binding signal (z-score),[11],-0.344
same,glycan array binding signal (z-score),[12],0.725
same,glycan array binding signal (z-score),[13],-0.113
same,glycan array binding signal (z-score),[14],-0.376
same,glycan array binding signal (z-score),[15],-0.503
same,glycan array binding signal (z-score),[16],-0.481
same,glycan array binding signal (z-score),[17],-0.255
same,glycan array binding signal (z-score),[18],0.434
same,glycan array binding signal (z-score),[19],1.4
same,glycan array binding signal (z-score),[20],0.078
same,glycan array binding signal (z-score),[21],0.582
same,glycan array binding signal (z-score),[22],-0.281
same,glycan array binding signal (z-score),[23],-0.544
same,glycan array binding signal (z-score),[24],0.18
same,glycan array binding signal (z-score),[25],-0.526
same,glycan array binding signal (z-score),[26],-0.509
same,glycan array binding signal (z-score),[27],0.104
same,glycan array binding signal (z-score),[28],0.234
same,glycan array binding signal (z-score),[29],0.083
same,glycan array binding signal (z-score),[30],-0.813
same,glycan array binding signal (z-score),[31],-0.227
same,glycan array binding signal (z-score),[32],0.307
same,glycan array binding signal (z-score),[33],0.576
same,glycan array binding signal (z-score),[34],-0.108
same,glycan array binding signal (z-score),[35],-0.682
same,glycan array binding signal (z-score),[36],0.187
same,glycan array binding signal (z-score),[37],-0.671
same,glycan array binding signal (z-score),[38],0.369

# Random excerpt: two entries already listed
binder,measurement,setting,value
RobpsCRA (Robinia pseudoacacia) (protein) IKGGYWYSGSGLAVSDINPSHFTHLFCAFADLDPNTNKLTISSSNAAAFSTFTQTVRAKNPSVKTLLSIGGGGGRALAAVFANMASQASRRKSFIDSSIQLARRNNFHGLDLDWEYPSSDIDKTNFASLIREWRAAVATESSTSGTPALLLSAAVGGSDQITPLKYYPGEAIANNLDWVNVMTYDLYTSDSYPTLTQPPAPLFYPRGIFSADEGITKWIQSGVPESKLALGLPFYGFKWRLSDPNNHGLFAPATQGLGAVKYKDIVNTGGQVEFDSTYVTNYCFKGTDWYGYDDTQSISAKVAYAKQRGLFGYFAWHIEQDSNWALS,glycan array binding signal (z-score),[12],0.725
same,glycan array binding signal (z-score),[8],0.702
